According to patent US20250066422A1:
Results are given in words; binding and its absence hold for the method and conditions named. A result given as binding can be weak or reduced; the word gives no strength.

Target: HLA-A*0201 (human)
Assay: UV-ligand exchange, streptavidin/anti-b2m sandwich ELISA

| binding | Binder |
| --- | --- |
| binds | SMSGYDQVL [HNRNPH-001] |
| binds | YVYQNNIYL [FAP-003] |
| binds | SLLESNKDLLL [SLC3A2-001] |
| binds | AIMGFIGFFV [SEC61G-001] |
| binds | YLIHFPVSV [AKR-001] |
| binds | FQYDHEAFL [RCN1-001] |
| binds | SLHFLILYV [ATP-001] |
